{"source": "patent US20140243332A1", "about": "“METHODS OF TREATING CANCERS CHARACTERIZED BY ABERRENT ROS1 ACTIVITY” (Oregon Health & Science University, priority 2013, published 2014)", "tested_on": "HCC78 cells", "test": "Cell viability (MTS) assay, HCC78", "type": "cell-based, human", "conditions": "FIG. 6C", "method": "The parental Ba/F3 cell line was cultured in RPMI 1640 medium with 10% FBS, L-glutamine, penicillin/streptomycin and 15% WEHI-conditioned media. Ba/F3 cell lines were maintained at densities of 0.5×10^6 to 1.5×10^6 per ml of media. FIG-ROS and SLC-ROS Ba/F3 lines were created by infecting the parental Ba/F3 with retrovirus expressing either human FIG-ROS-S (indicated FIG-ROS herein) or SLC-ROS-S (indicated SLC-ROS herein). Stable transfectant lines were sorted for GFP expression on a FACS Aria® flow cytometer. Cells were counted daily using Guava ViaCount® reagent and Guava Personal Cell Analysis® flow cytometer. […] Early passage NIH3T3 cells were infected with retrovirus expressing either FIG-ROS or SLC-ROS and sorted for GFP expression as described above for Ba/F3 cells. HCC78 cells were cultured in RPMI 1640 medium with 10% FBS, L-glutamine, and penicillin/streptomycin. This media is referred to as RPMI-10% FBS herein.", "note": "At least one compound was matched to its structure with a doubt left.", "data": [{"compound": "COCCNCc1ccc(-c2cc3nccc(Oc4ccc(NC(=S)NC(=O)Cc5ccc(F)cc5)cc4F)c3s2)nc1", "note": "[MGCD-265]", "values": [{"measurement": "HCC78 cell growth sensitivity to MET inhibitors", "result": "resistant"}]}]}
